Results are given in words; binding and its absence hold for the method and conditions named. Binding seen in cells or lysates may run through a third protein. Binding can be weak; no strength is given.
Target: TRK-Fused Gene (TFG) protein, endogenous in HEK293T cells (human (endogenous in HEK293T)) (UniProt Q92734)
Assay: co-IP; HEK293T cells transfected with GFP-tagged FANCD2 constructs; reverse IP and WB with antibodies to GFP or endogenous TFG (1% CHAPS lysis buffer)

Chains of the proteins cited; added tags and fusions are not shown. Lines headed by an entry give the natural chain unless they say otherwise; changes in a name come on top.
UniProt Q92734: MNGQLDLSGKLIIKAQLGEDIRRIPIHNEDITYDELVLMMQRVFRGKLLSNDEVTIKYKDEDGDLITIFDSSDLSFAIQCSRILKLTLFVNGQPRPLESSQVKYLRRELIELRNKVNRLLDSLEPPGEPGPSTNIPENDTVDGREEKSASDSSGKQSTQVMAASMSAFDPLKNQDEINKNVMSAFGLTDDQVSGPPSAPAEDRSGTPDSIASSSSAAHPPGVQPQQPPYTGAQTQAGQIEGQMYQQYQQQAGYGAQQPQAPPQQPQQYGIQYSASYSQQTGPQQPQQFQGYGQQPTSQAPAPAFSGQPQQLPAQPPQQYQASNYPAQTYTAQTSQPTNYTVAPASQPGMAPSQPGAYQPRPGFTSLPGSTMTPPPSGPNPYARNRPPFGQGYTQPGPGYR
UniProt Q9BXW9: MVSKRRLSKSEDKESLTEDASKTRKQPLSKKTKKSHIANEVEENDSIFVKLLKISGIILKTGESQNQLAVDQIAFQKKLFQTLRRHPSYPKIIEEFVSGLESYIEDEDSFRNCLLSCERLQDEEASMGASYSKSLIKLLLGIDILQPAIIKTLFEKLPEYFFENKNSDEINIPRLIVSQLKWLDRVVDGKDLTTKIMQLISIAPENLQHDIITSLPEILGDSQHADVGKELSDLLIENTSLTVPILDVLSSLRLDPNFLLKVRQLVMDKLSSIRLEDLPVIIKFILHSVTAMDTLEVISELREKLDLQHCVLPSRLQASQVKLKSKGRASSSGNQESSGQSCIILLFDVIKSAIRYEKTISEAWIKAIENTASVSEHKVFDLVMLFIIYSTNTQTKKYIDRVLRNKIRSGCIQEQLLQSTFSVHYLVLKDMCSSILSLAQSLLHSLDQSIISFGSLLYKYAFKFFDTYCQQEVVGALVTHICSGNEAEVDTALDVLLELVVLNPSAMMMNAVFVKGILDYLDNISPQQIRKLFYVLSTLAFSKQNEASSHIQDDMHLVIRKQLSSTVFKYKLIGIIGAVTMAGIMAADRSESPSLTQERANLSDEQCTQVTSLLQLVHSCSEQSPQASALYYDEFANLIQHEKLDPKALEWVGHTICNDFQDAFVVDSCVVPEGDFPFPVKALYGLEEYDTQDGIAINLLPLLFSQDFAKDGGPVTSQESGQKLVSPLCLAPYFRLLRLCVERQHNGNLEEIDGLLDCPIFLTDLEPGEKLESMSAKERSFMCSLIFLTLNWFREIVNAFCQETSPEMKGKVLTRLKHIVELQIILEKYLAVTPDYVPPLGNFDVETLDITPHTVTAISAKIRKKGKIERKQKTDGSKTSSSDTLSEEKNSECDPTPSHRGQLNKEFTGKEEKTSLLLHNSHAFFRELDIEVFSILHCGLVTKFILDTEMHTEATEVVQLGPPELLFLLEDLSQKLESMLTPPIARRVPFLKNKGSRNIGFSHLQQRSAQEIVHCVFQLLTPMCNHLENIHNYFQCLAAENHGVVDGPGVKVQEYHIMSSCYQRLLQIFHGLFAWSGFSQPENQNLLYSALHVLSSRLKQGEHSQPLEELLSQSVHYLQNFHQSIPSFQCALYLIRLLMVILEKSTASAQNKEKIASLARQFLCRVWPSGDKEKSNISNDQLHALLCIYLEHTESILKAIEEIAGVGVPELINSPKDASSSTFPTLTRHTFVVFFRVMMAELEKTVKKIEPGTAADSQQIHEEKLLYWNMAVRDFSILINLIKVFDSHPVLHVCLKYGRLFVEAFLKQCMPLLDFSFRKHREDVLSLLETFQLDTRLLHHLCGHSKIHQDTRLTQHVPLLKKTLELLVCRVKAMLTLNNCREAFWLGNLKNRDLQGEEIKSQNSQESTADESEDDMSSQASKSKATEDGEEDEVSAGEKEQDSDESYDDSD

Row | Substance | binding
1 | GFP-mtFANCD2-V2 K561R (from UniProt Q9BXW9) | binds
2 | GFP-mtFANCD2-V2Δaa1437-1442 (from UniProt Q9BXW9) | no binding

— PMC7655164
